Assay results from US20050288502A1, “Substituted heterocyclic compounds and methods of use” (priority 2004, published 2005).
Some of these results come from one statement about several compounds together. At least one compound was matched to its structure with a doubt left.

System: TNF-α
Assay: Lipopolysaccharide-activated THP1 cell TNF production assay (LPS induced TNF release)
Type: cell-based, human
Details: THP1 cells, bacterial LPS, secreted TNF-α after 3 h at 37° C.
Description: Lipopolysaccharide-Activated THP1 Cell TNF Production Assay
THP1 cells are resuspended in fresh THP1 media (RPMI 1640, 10% heat-inactivated FBS, 1XPGS, 1XNEAA, plus 30 μM βME) at a concentration of 1E6/mL. One hundred microliters of cells per well are plated in a polystyrene 96-well tissue culture. One microgram per mL of bacterial LPS is prepared in THP1 media and is transferred to the wells. Test compounds are dissolved in 100% DMSO and are serially diluted 3 fold in a polypropylene 96-well microtiter plate (drug plate). HI control and LO control wells contain only DMSO. One microliter of test compound from the drug plate followed by 10 μL of LPS are transferred to the cell plate. The treated cells are induced to synthesize and secrete TNF-α at 37° C. for 3 h. […] After a 2 h incubation at room temperature with shaking, the reaction is read on the ECL M8 Instrument (IGEN Inc.). […] The amount of secreted TNF-α: in the presence of compound compared with that in the presence of DMSO vehicle alone (HI control) is calculated using the formula:% control (POC)=(cpd−average LO)/(average HI−average LO)*100. […]

## C[C@@H](Nc1nccc(N(C)c2nc(-c3ccccc3)cc3ncnn23)n1)c1ccccc1 [Example 9, N-methyl-N^2-(R)-(1-phenyl-ethyl)-N^4-(7-phenyl-[1,2,4]triazolo[1,5-c]pyrimidine-5-yl)-pyrimidine-2,4-diamine]
  IC50: ≤ 20 µM
